The source of these data is article PMC7819943, “Rice protein-binding microarrays: a tool to detect cis-acting elements near promoter regions in rice”.

By UniProt entry, the sequences of proteins in these tests, tags left out.
UniProt Q0JBA9, entry or part of it: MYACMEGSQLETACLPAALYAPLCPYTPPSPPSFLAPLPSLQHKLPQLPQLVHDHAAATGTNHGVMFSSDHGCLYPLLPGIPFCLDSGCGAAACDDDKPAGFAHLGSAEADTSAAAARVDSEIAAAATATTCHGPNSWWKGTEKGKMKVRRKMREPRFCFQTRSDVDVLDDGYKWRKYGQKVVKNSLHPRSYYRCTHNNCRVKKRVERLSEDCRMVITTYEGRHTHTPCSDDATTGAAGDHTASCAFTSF

The other results are listed elsewhere or left out.

The assay deals with OsWRKY34 (Oryza sativa, UniProt Q0JBA9 1-250). The assay can be described thus: protein-binding microarray (RPBM); PBS, 2% BSA, 51.3 ng/ul salmon testes DNA, 50 uM zinc acetate, 200 nM TF, 25 C, 1 h; high values mean tight binding. The settings on record: protein: recombinant; tags: N-terminal polyhistidine and DsRed monomer fusion (pET32a); label: CyDye5-dUTP incorporated in the synthesized complementary strand; 3' TTTTT single-stranded linker to array surface; dsDNA, one strand shown. The method in brief: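 A custom Agilent array was converted to double-stranded form by primer extension with Cy5-dUTP and blocked with 2% BSA. Protein at 200 nM in PBS with 2% BSA, salmon testes DNA and 50 µM zinc acetate was applied for 1 h at 25 °C, followed by washing. The proteins were polyhistidine–DsRed N-terminal fusions of transcription factors, expressed in E. coli BL21-CodonPlus and Ni–NTA-purified. The binding signal is per-feature fluorescence intensity (arbitrary units) from an Axon 4000B scanner.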
Regarding “AACCCGATCACTTCCACGCCGCGCGATTGGTTGGCGAGCCCGGAGTCACCTAGTGCAG”, the binding signal was 8800 fluorescence intensity (a.u.).
The same measure for “CCGTTGTGTACTTTCAGCGGCTTTGGTTCGTGTTCCTCGCCGGAGTCACCTAGTGCAG”: 9810 fluorescence intensity (a.u.); for “ATACACGGATACACCACCTTCATCTCTCCTGTGTTTTCCTCGGAGTCACCTAGTGCAG”: 9760 fluorescence intensity (a.u.).
Regarding “GTGGCTCTGAATCTCAACTCATGCGCCACTTTGTTTCAAACGGAGTCACCTAGTGCAG”, the binding signal is 8320 fluorescence intensity (a.u.).
For the sequence “ACGGCCGCGCGCACCACCGCCTCGGCGGGCTGTATCTCAGCGGAGTCACCTAGTGCAG”, the binding signal is 8080 fluorescence intensity (a.u.).
As for “TTTGTGTTGTCTAGACATTTTTTTCTATTTTTCACCTATTCGGAGTCACCTAGTGCAG”, the binding signal is 9190 fluorescence intensity (a.u.).
For the sequence “TGCAAATACACCACAGGGTATTTTTTTTGTCTCTGATTTTCGGAGTCACCTAGTGCAG”, the binding signal is 8450 fluorescence intensity (a.u.).
With “TCTTTTAAATCTAATTGCTCTATGATTTGACCATGTGGTGCGGAGTCACCTAGTGCAG”, the binding signal is 8520 fluorescence intensity (a.u.).
The value for “AAAATTTGTGCCAGTTTGCTTGTTATTACGAATGGTAACACGGAGTCACCTAGTGCAG” was 8070 fluorescence intensity (a.u.).
On to “ACACACAGCCACTGCCGCAATTCGCAAATGACCAACGATCCGGAGTCACCTAGTGCAG”, for which the binding signal is 8590 fluorescence intensity (a.u.).
In the case of “AAGCCATCCGATCTCATCTCATCTCATCTCACCCTCGCCGCGGAGTCACCTAGTGCAG”, the binding signal was 8890 fluorescence intensity (a.u.).
With “AACCAGCATCTACCACTGCTTCTCCCGCCTCTGCTGCAACCGGAGTCACCTAGTGCAG”, the binding signal was 10700 fluorescence intensity (a.u.).
On to “ACACATAAGATATTCTATCTATATTCGGTATCCTATATTCCGGAGTCACCTAGTGCAG”, for which the binding signal is 8280 fluorescence intensity (a.u.).
Take “CACCATAACTAATTAACAAGCCACCTATTTCCTCTTGACACGGAGTCACCTAGTGCAG”: the binding signal was 8200 fluorescence intensity (a.u.).
Turning to “ACTTACACACAACGTACCAGTACTAATAATGCATAGCAAACGGAGTCACCTAGTGCAG”, the binding signal is 8650 fluorescence intensity (a.u.).
Consider “ACGAATTACACTTTTACGGTCAGGATAGACTGCTTATAATCGGAGTCACCTAGTGCAG”, for which the binding signal was 8820 fluorescence intensity (a.u.).
As to “CACAATCTTTCACCACTCACTTCTACCTATTTTTTTAATACGGAGTCACCTAGTGCAG”, the binding signal is 10200 fluorescence intensity (a.u.).
Turning to “GAGTATTTTTTTTTTTTTTGGGTATCCATCCAACCGGCGACGGAGTCACCTAGTGCAG”, the binding signal was 10200 fluorescence intensity (a.u.).
Take “GACCTTTTTTTCTTTTCTTCTTTGTTCTTTGTTGTTCTCTCGGAGTCACCTAGTGCAG”: the binding signal was 10700 fluorescence intensity (a.u.).
As to “AAGTTTCGTGCCTTACTTGTATCTTAACCATGTCATCAGGCGGAGTCACCTAGTGCAG”, the binding signal was 10700 fluorescence intensity (a.u.).
Turning to “AATTTACTCATTTTAGTATTTTTCTTTTTCCGCACCTTTCCGGAGTCACCTAGTGCAG”, the binding signal was 9520 fluorescence intensity (a.u.).
For “GGGTCGTTGCTGCTCCTCGGTCGGTCAGCCTCAGCCTCATCGGAGTCACCTAGTGCAG”, the binding signal was 8850 fluorescence intensity (a.u.).
Take “AACGAACACCCACACACATACACACACAGATGCCCAACACCGGAGTCACCTAGTGCAG”: the binding signal was 9650 fluorescence intensity (a.u.).
The same measure for “ACATAGTAATTTTGCATGGCCATCATCTTGCCCTCCTATACGGAGTCACCTAGTGCAG”: 9620 fluorescence intensity (a.u.).
The same measure for “CTCCTCACTCTCTAGCTTGCTCCAGTTTCGCGTAGCTGCGCGGAGTCACCTAGTGCAG”: 8192 fluorescence intensity (a.u.).
Turning to “TGGGTGGGTCATCACTGGTCAGAGACGACGGGCATGCATTCGGAGTCACCTAGTGCAG”, the binding signal was 12700 fluorescence intensity (a.u.).
Regarding “TGGTTGGTGGTGTCTGTGCGTGTTCCGGCGAGTGGTCGGTCGGAGTCACCTAGTGCAG”, the binding signal is 13000 fluorescence intensity (a.u.).
On to “TTGTTTGACTCTTTTTTAATTAAATTTCTATAAGTTTAATCGGAGTCACCTAGTGCAG”, for which the binding signal is 8280 fluorescence intensity (a.u.).
Consider “GAGATGGGCTGCATGGGGAGGGGAGTGCAACATTTTTTTGCGGAGTCACCTAGTGCAG”, for which the binding signal is 11000 fluorescence intensity (a.u.).
Take “AAATTTTATTCTCATATGGCACTTTATATAGCTCACCTATCGGAGTCACCTAGTGCAG”: the binding signal is 8420 fluorescence intensity (a.u.).
For “AGCAAAACACTCGTCGTCGTCGCCGTCGCGTCCGCCGGAGCGGAGTCACCTAGTGCAG”, the binding signal was 9330 fluorescence intensity (a.u.).
Turning to “CGCTTCCTGTTGTGATTATGTAATCTTGTATTCTTGTTGACGGAGTCACCTAGTGCAG”, the binding signal was 11600 fluorescence intensity (a.u.).
On to “GCGCCATCCACCATTACAAAGGTGTCTCCACCGATCGAACCGGAGTCACCTAGTGCAG”, for which the binding signal is 9760 fluorescence intensity (a.u.).
The value for “GTGTGGTACTCTGTTGTATCCTTGGTGTACGGGTGTTGGACGGAGTCACCTAGTGCAG” was 9980 fluorescence intensity (a.u.); that for “GTCGATGTGCCGTCTCCTTTGTTGCTTTTCACCTTTTCTTCGGAGTCACCTAGTGCAG” was 10500 fluorescence intensity (a.u.).
The value for “CTGGGTACAACGAAGTTCTGTGGTCCTCTAACATCTTGTCCGGAGTCACCTAGTGCAG” was 9140 fluorescence intensity (a.u.); that for “GGATTGGTCAAGGACTCCTCTTTTATTATGTCGATTTTTTCGGAGTCACCTAGTGCAG” was 11100 fluorescence intensity (a.u.); that for “TTCTTATCCTAGGGGTGTTTAGATGGGGCTAAAACTTTTTCGGAGTCACCTAGTGCAG” was 9310 fluorescence intensity (a.u.).
The value for “CCTGATTATTTGGTCTCGAATGGGTTCACATTCTTTATCTCGGAGTCACCTAGTGCAG” was 8340 fluorescence intensity (a.u.); that for “GGAGGCGGTGGTGTTGGAGTTGGAGGGCGCGTGGAGGTGGCGGAGTCACCTAGTGCAG” was 12900 fluorescence intensity (a.u.).
For “GCCGCGAGTGTCCGATAGCTAATTACCAGTTTTTTTTCGTCGGAGTCACCTAGTGCAG”, the binding signal was 8190 fluorescence intensity (a.u.).
Regarding “GGAGAGGCGTTGGATTAGATTGGACGGTGGATTGCCTCGACGGAGTCACCTAGTGCAG”, the binding signal is 8680 fluorescence intensity (a.u.).
